Results deposited as PubChem BioAssay AID504795 (Drosophila RNAi Screening Center, 2011).

Screen: 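Genes required for normal axon extension and glial cell shape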 (primary screen)
Cell system: primary Drosophila neurons and glia
Reagents: long dsRNA against Drosophila genes, 250 ng dsRNA per well
Duration: one week
Detection: 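Descriptive morphology terms assigned by visual inspection of live automated images of GFP-marked cells, taken one week after adding 250 ng dsRNA per well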
Only reagents picked out of a larger screen are listed. 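Every listed dsRNA shows some phenotype; how reagents were selected for listing is not stated.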 Names joined by + are all predicted targets of the reagent. Further read-outs or replicates are left out here. Reagent sequences are not shown.

phenotype seen, replicate 1, by predicted target and reagent
CG31743 + CG34313: DRSC02781 axon bundles split apart
Fer2LCH (Ferritin 2 light chain homologue): DRSC16672 too many neurite branches
eIF3a (eukaryotic translation initiation factor 3 subunit a): DRSC12339 reduced axon outgrowth
msk (moleskin): DRSC11340 too many neurite branches
CG7692: DRSC10902 beaded; swollen axons
Eb1: DRSC05016 sheet-like cell extensions
Blm + CG14721: DRSC14943 fewer cells
Oatp58Da (Organic anion transporting polypeptide 58Da): DRSC04365 too many neurite branches
twr (twisted bristles roughened eye): DRSC12491 beaded; swollen axons
CG10005: DRSC14172 axon bundles split apart
E(bx) (Enhancer of bithorax): DRSC08172 abnormal cell clusters
Ets97D (Ets at 97D): DRSC16665 sheet-like cell extensions
Nepl16 (Neprilysin-like 16): DRSC14650 reduced axon outgrowth
Nup153 (Nucleoporin 153kD): DRSC19904 axon bundles split apart
CG14245: DRSC14740 axon bundles split apart
niki (nimA-like kinase): DRSC14285 cell fragments present
CG3982: DRSC10394 sheet-like cell extensions
lbm (late bloomer): DRSC07643 axon bundles split apart
Rpt6R (Regulatory particle triple-A ATPase 6-related): DRSC15431 axon bundles split apart
mtd (mustard): DRSC12380 axon bundles split apart
CG2812: DRSC04319 abnormal cell clusters
Hel89B (Helicase 89B): DRSC16700 abnormal cell clusters
CG42382: DRSC07671 abnormal cell clusters
ATPsyngamma (ATP synthase, gamma subunit): DRSC14094 sheet-like cell extensions
CG7252: DRSC10789 axon bundles split apart; DRSC21492 axon bundles split apart
PGRP-SD (Peptidoglycan recognition protein SD): DRSC10856 too many neurite branches
CG32453: DRSC21673 too many neurite branches
hoip (hoi-polloi): DRSC03546 axon bundles split apart
CG1722: DRSC20547 too many neurite branches
disp (dispatched): DRSC12376 too many neurite branches
CG31141: DRSC13646 reduced axon outgrowth
Muc12Ea (Mucin 12Ea): DRSC19937 too many neurite branches
mRpS9 (mitochondrial ribosomal protein S9): DRSC15456 too many neurite branches
CG15365: DRSC18038 cell fragments present
Ir75c (Ionotropic receptor 75c): DRSC10190 cell fragments present
ppk29 (pickpocket 29): DRSC04205 axon bundles split apart
Meics (Meiotic central spindle): DRSC11413 axon bundles split apart
bru1 (bruno 1): DRSC01234 abnormal cell clusters
Vps39 (Vacuolar protein sorting 39): DRSC16205 axon bundles split apart
RpL39 (Ribosomal protein L39): DRSC04651 too many neurite branches
FBXO11 (F-box protein 11): DRSC16497 sheet-like cell extensions
Grx1t (Glutaredoxin 1, testis-specific): DRSC04530 too many neurite branches
Vha100-2 (Vacuolar H[+] ATPase 100kD subunit 2): DRSC14152 axon bundles split apart
Mcm2 (Minichromosome maintenance 2): DRSC16734 too many neurite branches
CG42784: DRSC02535 too many neurite branches
CG4611: DRSC10434 too many neurite branches
simj (simjang): DRSC10942 abnormal cell clusters
hdm (hold'em): DRSC18013 abnormal cell clusters
Elovl7 (ELOVL fatty acid elongase 7): DRSC15452 too many neurite branches; DRSC21570 too many neurite branches
e(y)2 (enhancer of yellow 2): DRSC19640 abnormal cell clusters
NimB2 (Nimrod B2): DRSC22645 too many neurite branches
Pbgs (Porphobilinogen synthase): DRSC09718 abnormal cell clusters
fon (fondue): DRSC02507 too many neurite branches
Sema1b (Semaphorin 1b): DRSC07550 abnormal cell clusters
CG14892: DRSC15014 too many neurite branches
Atxn7 (Ataxin 7): DRSC00726 abnormal cell clusters
yip2 (yippee interacting protein 2): DRSC03640 beaded; swollen axons
CG6356: DRSC16026 axon bundles split apart
CG31562 (retired record): DRSC12274 axon bundles split apart
PH4alphaPV (prolyl-4-hydroxylase-alpha PV): DRSC22400 reduced axon outgrowth

Not a retest: 11 of the entries above.
phenotype seen, replicate 1, by predicted target and reagent
CG42784: DRSC02535 too many neurite branches
CG4611: DRSC10434 too many neurite branches
simj (simjang): DRSC10942 abnormal cell clusters
hdm (hold'em): DRSC18013 abnormal cell clusters
Elovl7 (ELOVL fatty acid elongase 7): DRSC15452 too many neurite branches; DRSC21570 too many neurite branches
e(y)2 (enhancer of yellow 2): DRSC19640 abnormal cell clusters
NimB2 (Nimrod B2): DRSC22645 too many neurite branches
Pbgs (Porphobilinogen synthase): DRSC09718 abnormal cell clusters
fon (fondue): DRSC02507 too many neurite branches
Sema1b (Semaphorin 1b): DRSC07550 abnormal cell clusters

The listing continues.
phenotype seen, replicate 1, by predicted target and reagent
erm (earmuff): DRSC00700 too many neurite branches
Nedd8 (Nedd8 ubiquitin like modifier): DRSC02092 axon bundles split apart
CG13028: DRSC09908 axon bundles split apart
cv-c (crossveinless c): DRSC14973 axon bundles split apart
Ir31a (Ionotropic receptor 31a): DRSC22358 axon bundles split apart
Lrt (Leucine-rich tendon-specific protein): DRSC06045 axon bundles split apart
CG15651: DRSC04242 too many neurite branches
Rheb (Ras homolog enriched in brain): DRSC12148 axon bundles split apart
CG7785: DRSC16311 axon bundles split apart
TotB (Turandot B): DRSC15842 too many neurite branches
wake (wide awake): DRSC16149 abnormal cell clusters
TwdlT (TweedleT): DRSC16677 axon bundles split apart
CG1690: DRSC06636 abnormal cell clusters
RpL21 (Ribosomal protein L21): DRSC03704 beaded; swollen axons
Tsp42Ec (Tetraspanin 42Ec): DRSC06192 abnormal cell clusters
Pepck1 (Phosphoenolpyruvate carboxykinase 1): DRSC07505 axon bundles split apart
Idgf2 (Imaginal disc growth factor 2): DRSC03350 too many neurite branches
CG6923: DRSC16136 too many neurite branches
CG15083: DRSC06514 abnormal cell clusters
PGRP-SB2 (Peptidoglycan recognition protein SB2): DRSC11092 reduced axon outgrowth
CG30039: DRSC21794 fewer cells
CG4021: DRSC04439 fewer cells
CG15155: DRSC02456 axon bundles split apart
Polr2H (RNA polymerase II, I and III subunit H): DRSC11642 axon bundles split apart
sdt (stardust): DRSC17861 axon bundles split apart
ind (intermediate neuroblasts defective): DRSC11355 too many neurite branches
CG34210: DRSC04579 abnormal cell clusters
CG10597: DRSC19357 abnormal cell clusters
CG9503: DRSC21766 fewer cells
CG30192: DRSC03977 too many neurite branches
CG3176 + CR18166 + CG32817: DRSC18288 axon bundles split apart
Cys (Cystatin-like): DRSC16637 abnormal cell clusters
Orcokinin: DRSC04202 abnormal cell clusters
twe (twine): DRSC03628 sheet-like cell extensions
CG14492: DRSC06463 too many neurite branches
Act5C (Actin 5C): DRSC17723 sheet-like cell extensions
Vsx1 (Visual system homeobox 1): DRSC18349 too many neurite branches
mon2 (monensin sensitivity 2): DRSC03112 too many neurite branches
Targ (Tarag): DRSC06206 fewer cells
SLO2 (slowpoke 2): DRSC06212 axon bundles split apart; DRSC06216 too many neurite branches; DRSC06218 sheet-like cell extensions
CG30470 (retired record): DRSC05553 too many neurite branches
l(2)03659 (lethal (2) 03659): DRSC07269 axon bundles split apart
RpS13 (Ribosomal protein S13): DRSC03419 axon bundles split apart
toe (twin of eyg): DRSC09783 cell fragments present
CG12589: DRSC12215 axon bundles split apart
CG33308: DRSC01419 abnormal cell clusters
AGO2 (Argonaute 2): DRSC09999 too many neurite branches
CG5770: DRSC06954 axon bundles split apart
Polr1A (RNA polymerase I subunit A): DRSC07535 axon bundles split apart
Nipped-B: DRSC07815 too many neurite branches
Rpn6 (Regulatory particle non-ATPase 6): DRSC07541 axon bundles split apart
CG42729: DRSC10236 beaded; swollen axons
Sgs5bis: DRSC16263 abnormal cell clusters
Atx2 (Ataxin-2): DRSC15727 too many neurite branches
Pgant9 (Polypeptide N-Acetylgalactosaminyltransferase 9): DRSC05621 weaker green signal; DRSC06584 beaded; swollen axons; DRSC07187 axon bundles split apart
CG12934: DRSC06247 axon bundles split apart
mago (mago nashi): DRSC04703 reduced axon outgrowth
CG33110: DRSC14694 too many neurite branches
Spn53F (Serpin 53F): DRSC06022 abnormal cell clusters
twi (twist): DRSC04720 axon bundles split apart
S-Lap5 (Sperm-Leucylaminopeptidase 5): DRSC06732 reduced axon outgrowth
RpS3 (Ribosomal protein S3): DRSC16838 sheet-like cell extensions
DIP-beta (Dpr-interacting protein beta): DRSC20489 axon bundles split apart
CG13086: DRSC02190 abnormal cell clusters
kek3 (kekkon 3): DRSC03553 sheet-like cell extensions
elB (elbow B): DRSC03527 cell fragments present
ClC-b (Chloride channel-b): DRSC07220 axon bundles split apart
CG5382: DRSC15786 reduced axon outgrowth
CG12689: DRSC17879 axon bundles split apart
CG12065: DRSC17799 axon bundles split apart
CG7369: DRSC11822 axon bundles split apart
CG15153: DRSC02454 too many neurite branches
